# PubChem BioAssay AID1259415 (National Center for Advancing Translational Sciences (NCATS), 2018)
# The whole screen tested about 410,000 compounds, of which about 18,000 (4.4%) were called active. The inconclusive results got no clear call from the source; some entries with a clear call stand among them for comparison. Rule as the data show it: active = activity change below about -60%; inconclusive = no clear call, values can overlap the other calls; inactive = above about -39%.
# Assay: qHTS Assay for inhibitors of the human cytomegalovirus (HCMV)
# Details: HFF cells, HCMV-luciferase reporter, 72 h; at 57.5 µM; active compounds read low
# In short: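 Two-dose cell screen: HFF monolayers treated with compounds and infected with luciferase-expressing HCMV at 1 PFU/cell, 72 h at 37C, then lysed for luciferase measurement.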
# % is scaled to controls: 0 for no effect and ±100 for the full control effect.
row,SMILES,"activity change, negative = inhibition"
1,COC(=O)CSc1cnc2ccccc2n1,inactive: 93.9%
2,CCCCC(O)(c1ccc(CC)cc1)C(CN1CCOCC1)c1ccccc1 (centres undefined),active: -71.3%
3,CCC(Sc1nc2ccsc2c(=O)n1-c1ccc(Cl)c(C)c1)C(=O)NCc1ccco1 (centres undefined),inconclusive: -43.4%
4,COc1ccc(C(=O)c2oc3ccc(Br)cc3c2NC(C)=O)cc1,inconclusive: -41.1%
5,O=C(OCc1cc(=O)n2cc(Br)ccc2n1)C1COc2ccccc2O1 (centres undefined),active: -65.5%
6,COc1ccc(OC)c(-c2noc(N3CCN(c4cccc(C(F)(F)F)c4)CC3)n2)c1,inactive: -35.6%
7,N#Cc1cccc(S(=O)(=O)NCC(=O)OCC(=O)c2ccc[nH]2)c1,inconclusive: -41.6%
8,O=c1c(NCCc2ccccc2)c(-c2ccccc2)c1=O,inactive: -14.9%
9,Cc1ccc(S(=O)(=O)NC(=O)C2(C)CCN2C(=O)C2(c3ccc(Cl)cc3)CCC2)nc1 (centres undefined),inconclusive: -46.2%
10,O=C(NCCN1C(=O)S/C(=C/c2cccnc2)C1=O)C1CC(=O)N(Cc2ccccc2)C1 (centres undefined),inconclusive: -51.2%
11,CCOC(=O)c1c(N)n(-c2ccc(OCC)cc2)c2nc3ccccc3nc12,inactive: 4.57%
12,O=C(CSc1nnc(-c2ccc(Cl)cc2)n1Cc1ccco1)NCc1ccc2c(c1)OCO2,inconclusive: -59.2%
13,Cc1c(CC(=O)NCCc2ccccc2)c(=O)oc2c(C)c3occ(C(C)(C)C)c3cc12,inconclusive: -45.6%
14,Cc1cc(C)c2c(NC(=O)c3ccccc3Cl)c(C(=O)NCc3ccc(Cl)cc3)sc2n1,inactive: -38.3%
15,N#CCSc1nc2c(c(C3CC=CCC3)c1C#N)CCC2 (centres undefined),inconclusive: -54.9%
16,O=C(Nc1ccc(S(=O)(=O)NC2=NCCCCC2)cc1)c1ccc(Cl)c([N+](=O)[O-])c1,inconclusive: -48.4%
17,CN1CCN(CCCNC(=O)c2ccc(/C=C3\Sc4ccccc4N(Cc4ccccc4F)C3=O)cc2)CC1,active: -63.4%
18,Cc1ccc(CN(Cc2cccn2-c2nnc(N3CCCC3=O)s2)C(=O)Nc2ccccc2Cl)cc1,inactive: -14.4%
19,COc1ccc(CNCc2c(C(=O)N(C)C)nc3ccc(Cl)cn23)c(OC)c1,inconclusive: -48.3%
20,COc1ccc(C(=O)Nn2c(SCC(=O)NCc3ccccc3)nc3ccccc3c2=O)cc1,inconclusive: -43.1%
21,COc1ccc(-c2oc3ccc(-c4cc(OC)c(OC)c(OC)c4)cc3c2C#Cc2ccsc2)cc1,inconclusive: -44.2%

# Molecules above that have a thiophene ring, fused or not (three):
row,SMILES,"activity change, negative = inhibition"
3,CCC(Sc1nc2ccsc2c(=O)n1-c1ccc(Cl)c(C)c1)C(=O)NCc1ccco1 (centres undefined),inconclusive: -43.4%
14,Cc1cc(C)c2c(NC(=O)c3ccccc3Cl)c(C(=O)NCc3ccc(Cl)cc3)sc2n1,inactive: -38.3%
21,COc1ccc(-c2oc3ccc(-c4cc(OC)c(OC)c(OC)c4)cc3c2C#Cc2ccsc2)cc1,inconclusive: -44.2%

# Continuation:

row,SMILES,"activity change, negative = inhibition"
1,Cn1c(=O)c2c(nc(N3CCOCC3)n2Cc2ccccc2F)n(C)c1=O,active: -104%
2,COc1ccc(S(=O)(=O)/C(C#N)=C/Nc2cccc(OC)c2)cc1,inconclusive: -58.9%
3,CN(Cc1ccc(Cl)c(Cl)c1)C(=O)C1CSC2(C)CCC(=O)N12 (centres undefined),active: -82.2%
4,CSc1nc(N(C)NC(=O)c2ccc(Cl)cc2)c2ccccc2n1,active: -65.4%
5,CC(=O)Nc1ccc(SCC(=O)NCC2(N3CCCCC3)CCCCC2)cc1,inconclusive: -50.2%
6,COC(=O)C1=C(c2ccc(C(C)=O)cc2)C[C@@H]2CC[C@H]1N2C(=O)NCCNC(C)=O,inconclusive: -46.8%
7,CC(=O)N1C(=O)/C(=C2\SC(=S)N(NS(=O)(=O)c3ccc(C)cc3)C2=O)c2ccccc21,inactive: 16.4%
8,Cc1ccc(CSC2=Nc3ccccc3C3=NC(=O)CN23)cc1,inconclusive: -45.2%
9,CCCN(CC(=O)Nc1ccc(F)c(F)c1F)CC(=O)Nc1c(C)n(C)n(-c2ccccc2)c1=O,active: -68.8%
10,O=C(c1cc(-c2ccc(Br)cc2)n[nH]1)N1CCN(S(=O)(=O)c2ccc(Cl)s2)CC1,inconclusive: 0%
11,COCCCn1c(SCC(=O)Nc2ccc(OC)cc2)nc2c(sc3ccccc32)c1=O,inconclusive: 0%
12,N#Cc1c(NC(=O)CSc2nnnn2C2CCCCC2)sc2c1CCCC2,inactive: -11.7%
13,CCCCSc1nc2c(cc1C#N)CCC2,inactive: 14.7%
14,O=C(CSc1nc2ccc([N+](=O)[O-])cc2s1)NCC1CCCO1 (centres undefined),active: -70.6%
15,O=[N+]([O-])c1c(-c2cscn2)[nH]c2ccccc12,inconclusive: -50.6%
16,Cc1cc(-c2ccccc2)nc2cc(C(N)=O)nn12,inconclusive: -43.4%
17,CCCn1nc(NC(=O)C(C)C)c2cc3cc(OC)ccc3nc21,inconclusive: -55.7%
18,CC(Sc1nnc(COc2ccc(Cl)cc2)n1Cc1ccco1)C(=O)N1CCNC1=O (centres undefined),inconclusive: 0%
19,O=C(c1cccc(Cl)c1)c1nn(-c2ccccc2)c(=O)cc1C(F)(F)F,active: -71.6%
20,O=C(Nc1ccccc1)C1=C[C@@H](C2CC2)C[C@@H](OCc2ccc(CO)cc2)O1,inactive: 22.9%
21,CN1C(=O)/C(=C/c2ccccc2OCc2ccc(C(=O)O)cc2)NC1=S,inconclusive: -41.2%

row,SMILES,"activity change, negative = inhibition"
1,CN(CC(=O)Nc1c(Cl)cccc1Cl)C(=O)Cc1ccc2c(c1)CCC2,inconclusive: -43.9%
2,NC(Cc1ccc(C(F)(F)F)cc1)c1csc(Nc2nccc(C(F)(F)F)n2)n1 (centres undefined),inconclusive: -54.9%
3,COc1cc(OC)cc(C(=O)N2CCN(C(=O)COc3ccc(C)cc3)CC2)c1,inactive: 9.63%
4,O=C(OCc1c(F)cccc1Cl)c1cccc(S(=O)(=O)N2CCOCC2)c1,inconclusive: -45.3%
5,O=C(NCc1ccccc1Cl)C1CCCN(S(=O)(=O)c2cccc3nonc23)C1 (centres undefined),inconclusive: -46.5%
6,S=C(NCCCc1ccccc1)Nc1ccc(Cl)cc1,active: -97.6%
7,O=C(NCCN1CCN(C(=O)NC2CCCCC2)CC1)NC1CCCCC1,inactive: 35.4%
8,O=C(Nc1ccc(Cl)c(C(F)(F)F)c1)C1Cc2c(-c3ccccc3)ccnc2O1 (centres undefined),active: -83.8%
9,Cc1c(NC(=O)c2cccc(NC(=O)COc3cccc(Br)c3)c2)c(=O)n(-c2ccccc2)n1C,inconclusive: -41.3%
10,Cc1cc(S(=O)(=O)NCCc2ccccc2)c(C)s1,active: -97.5%
11,COC(=O)c1ccc(NC(=O)CCCN2C(=O)NC(C)(C)C2=O)cc1,inactive: -7.95%
12,O=C(CN1CCCCCC1)Nc1ccc(Br)cc1Br,inactive: 32.3%
13,NC(=O)CC(NC(=O)c1ccccc1)c1ccc(NC2CCCCC2)c([N+](=O)[O-])c1 (centres undefined),inactive: -27.2%
14,CCC(C)(C)NC(=O)C(c1ccc(OC)cc1)N(C(=O)CCC(=O)Nc1cc(C)on1)C(C)(C)C (centres undefined),inactive: 11.5%
15,Cc1nn(Cc2cccc(C(=O)Nn3cc([N+](=O)[O-])cn3)c2)c(C)c1[N+](=O)[O-],inactive: -21.7%
16,CCc1ccc(NC(=O)Cn2cnc([N+](=O)[O-])c2)cc1,inactive: -38.1%
17,CCc1c(-c2ccc(OC)cc2)ncn1Cc1cccc(-c2ccccc2)c1,inconclusive: -53.7%
18,COc1ccc(NC(=O)c2ccc(S(=O)(=O)N(C)c3ccccc3)cc2)cc1S(=O)(=O)N1CCOCC1,inconclusive: -48.9%
19,O=C(C[n+]1ccc(/C=N/O)cc1)NC1CCCCC1,inconclusive: -41.9%
20,COCCN(CCOC)S(=O)(=O)c1ccc(C(=O)NC2CCN(Cc3ccccc3)CC2)cc1,inconclusive: -45.3%
21,Cc1ccc(C)c(NC(=O)C2CCCN2C(=O)OC(C)(C)C)c1 (centres undefined),inconclusive: -41.9%

row,SMILES,"activity change, negative = inhibition"
1,c1ccc2nc(-c3nccs3)ccc2c1,inactive: -13.1%
2,O=C(CC1C(=O)NCCN1C(=O)Nc1ccc(F)cc1)Nc1ccc(F)cc1 (centres undefined),inactive: 6.94%
3,CCOc1ccc(OCC)c(NC(=O)C2CCN(S(=O)(=O)c3ccc4c(c3)CC(C)N4C(C)=O)CC2)c1 (centres undefined),inconclusive: -53.2%
4,CCn1cnc2c1c(=O)n(CC(=O)NCc1ccccc1)c(=O)n2Cc1ccccc1,inconclusive: -45.3%
5,CSc1ccc(-c2nnn(Cc3ccccn3)n2)cc1,inactive: 71.1%
6,CC1(C(=O)Nc2ccc3c(c2)OCCO3)CCN1C(=O)C1(c2ccc(Cl)cc2)CCC1 (centres undefined),inconclusive: -52.2%
7,O=C(Nc1cnn(Cc2ccc(F)cc2)c1)c1cnn2c(C(F)F)cc(-c3ccccc3)nc12,inconclusive: -47%
8,NS(=O)(=O)c1ccc(CCNC(=O)c2cc(-c3ccccn3)nc3ccc(Br)cc23)cc1,inconclusive: -59.5%
9,Cc1c(C)c(C)c(S(=O)(=O)NCCc2ccncc2)c(C)c1C,inconclusive: -42.1%
10,OCCN1CCN(c2ncnc3scc(-c4ccc(F)cc4)c23)CC1,inactive: -31.4%
11,O=C(Nc1ccc(N2CCOCC2)cc1)c1cc(-c2ccncc2)nc2ccccc12,inconclusive: -46%
12,CCN1CCN(C(=O)c2ccc(CNS(=O)(=O)c3cccc(OC)c3)cc2)CC1,inactive: 4.25%
13,Cc1onc(-c2c(Cl)cccc2Cl)c1C(=O)NC(=S)Nc1sc2c(c1C(N)=O)CCC(C)C2 (centres undefined),inconclusive: -43.1%
14,CCc1ccccc1NC(=O)COCc1cc(-c2ccco2)on1,inconclusive: 0%
15,Cn1ccc(C(=O)N2CCCc3ccccc32)n1,inactive: 11%
16,Cc1nc(N)ncc1Sc1ccc(Cl)cc1,inconclusive: -59.1%
17,Cc1cc2nc(C3CCN(C(=S)NCC(C)C)CC3)[nH]c2cc1C,inconclusive: -51.3%
18,Cc1cccc(N2CCN(C3=NC(=O)C(Cc4ccccc4)S3)CC2)c1 (centres undefined),inactive: -24.4%
19,CCN(CC)CCNC(=O)c1[nH]c2ccc(OCc3ccccc3)cc2c1C,inconclusive: -44.9%
20,C#CCOCCOCCOCCNc1nc(N2CCOCC2)nc(N2CCN(C(=O)[C@H](CCC(=O)O)n3cc([C@@H](N)CCCCN)nn3)CC2)n1,inactive: -0.533%
21,C[C@@H](CN1C2=NC[C@H](Cc3ccc(O)cc3)N2C[C@H]1Cc1ccc(O)cc1)NC(=O)CCC1CCCCC1,inactive: 1.97%

# 3 neighbouring entries from above:
row,SMILES,"activity change, negative = inhibition"
5,CSc1ccc(-c2nnn(Cc3ccccn3)n2)cc1,inactive: 71.1%
6,CC1(C(=O)Nc2ccc3c(c2)OCCO3)CCN1C(=O)C1(c2ccc(Cl)cc2)CCC1 (centres undefined),inconclusive: -52.2%
7,O=C(Nc1cnn(Cc2ccc(F)cc2)c1)c1cnn2c(C(F)F)cc(-c3ccccc3)nc12,inconclusive: -47%
